Reference: patent publication US20050148627A1 (priority 2003, published 2005)
The structures given here were assigned with low confidence; some may be wrong.

By UniProt entry, the sequences of proteins in these tests, tags left out. Residues count along the entry.
UniProt P35354, 18-604 limits assumed: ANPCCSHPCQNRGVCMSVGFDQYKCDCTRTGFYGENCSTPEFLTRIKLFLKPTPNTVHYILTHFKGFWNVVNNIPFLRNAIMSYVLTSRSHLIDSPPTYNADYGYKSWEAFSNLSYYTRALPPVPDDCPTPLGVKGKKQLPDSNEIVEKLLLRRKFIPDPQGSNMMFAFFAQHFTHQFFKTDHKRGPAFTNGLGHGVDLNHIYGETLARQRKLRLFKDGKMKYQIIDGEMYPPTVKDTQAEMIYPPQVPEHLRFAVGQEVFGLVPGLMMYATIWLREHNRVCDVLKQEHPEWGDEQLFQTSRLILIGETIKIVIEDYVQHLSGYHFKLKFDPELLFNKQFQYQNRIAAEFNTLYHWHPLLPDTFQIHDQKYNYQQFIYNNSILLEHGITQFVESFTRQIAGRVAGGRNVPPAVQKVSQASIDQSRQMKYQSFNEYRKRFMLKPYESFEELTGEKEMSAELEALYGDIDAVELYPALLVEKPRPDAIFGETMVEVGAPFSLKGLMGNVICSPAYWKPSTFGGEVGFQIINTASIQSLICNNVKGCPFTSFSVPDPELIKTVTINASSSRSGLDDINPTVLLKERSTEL

What was measured:
[1] = target: T1, COX-2 (Homo sapiens, UniProt P35354); assay: Assay for COX-1 and COX-2 Activity (PGE2 ELISA): COX-2; settings: read-out: hCox-2 IC50; human COX-2; standard assay
[2] = target: T1, COX-2; assay: Modified Assay for COX-1 and COX-2 Activity (PGE2 ELISA): COX-2; settings: read-out: hCox-2 Modified IC50, human COX-2

Row | IC50 [1] | IC50 [2] | SMILES
1 | 8.9 µM | 3.16 µM | CC(C)(c1ccccc1)c1ccc(Oc2cc3c(cc2Cl)C=C(C(=O)O)C(C(F)(F)F)O3)cc1 (stereo not shown)
2 | 9 µM | 10.2 µM | COc1cc2c(cc1-c1ccc(SC)cc1)C=C(C(=O)O)C(C(F)(F)F)O2 (stereo not shown)
